For at least one entry, the source does not settle the construct or the ends of the probe. Weaker means in comparison with the reference protein, sequence or condition of that experiment.
System: TBX5 + MEF2C
Assay: EMSA
Conditions: EMSA in 15-20 ul, 0.5 h at room temperature, salt and pH not given (as described previously, ref 28), label: end-labelled

**Q.** Which results are given for “CACCTCCACACCCTGGAGCTATATTGAGAGGTGACAGTAAAC (double strand) [MYH6 promoter T-M-T probe]”?
**A.** binding result (increasing HDAC4): binds more weakly; binding result (no HDAC4): binds
